No constants are given. Whether binding was seen depends on the method and setting. Some binding calls cover weakened binding; strength is not graded here.

For experiment [1], the target named is polypeptide encoded by the PERP gene, endogenous, on human cancer cell lines (human) (UniProt Q96FX8). Description: flow cytometry on human cancer cell lines, culture supernatant.
For experiment [2] the target is unchanged. Kind of experiment: flow cytometry on Colo 205 cells. In general terms: In flow cytometry, cells or beads pass a laser one at a time.
Experiment [3] shares this target. Kind of experiment: flow cytometry on PC9, NCI-H69, Capan-2 and BxPC-3 cells, 10 µg/mL.

B1: anti-PERP mouse antibody KM3411 (antibody, V domains shown)
VH: DVQLQESGPGLVKPSQSLSLTCTVTGFSITTEYAWNWIRQFPGNRLEWMGYIGYTGRTNYSPSLKSRISITRDTSKNQFFLQLNSVTTEDTATYYCTRMDYWGQGTSVTVSS
VL: QIVLIQSPVIMSASPGEKVTITCSASSSVSYMHWFQQKPGTSPKLWIYSTSNLASGVPARFSGSGSGTSYSLTISRMEAEDAATYYCQQRSSYPPTFGAGTKLELK
With B1, the binding result in experiment [1] and in experiment [2] was “binds” throughout.

B2: anti-PERP chimeric antibody KM3481 (antibody, V domains shown)
VH: DVQLQESGPGLVKPSQSLSLTCTVTGFSITTEYAWNWIRQFPGNRLEWMGYIGYTGRTNYSPSLKSRISITRDTSKNQFFLQLNSVTTEDTATYYCTRMDYWGQGTSVTVSS
VL: QIVLIQSPVIMSASPGEKVTITCSASSSVSYMHWFQQKPGTSPKLWIYSTSNLASGVPARFSGSGSGTSYSLTISRMEAEDAATYYCQQRSSYPPTFGAGTKLELK
In the case of B2, in experiment [3], the binding entry was “binds”.
